Laboratory results as given in the supplement of paper PMC4862054.
Small differences around the control level are noise.

What was measured:
Assay in all cases: normalised response (% of control), CellTox Green; higher = less cell death (100 = DMSO, 0 = benzethonium chloride kill control)
Conditions in all cases: incubation time: 72 h
HCC1143 = tested on: HCC1143
Procedure: (§1)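 DSRT, 72 h incubation, CellTox Green / CellTiter-Glo readout. Signal is normalised to DMSO and benzethonium chloride controls. Value is the normalised response at the lowest tested concentration.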

MDA-MB-436 = tested on: MDA-MB-436
Procedure: as §1

HCC1599 = tested on: HCC1599
Procedure: as §1

CAL-85-1 = tested on: CAL-85-1
Procedure: as §1

MCF-10A = tested on: MCF-10A
Procedure: as §1

BT-474 = tested on: BT-474
Procedure: as §1

MDA-MB-453 = tested on: MDA-MB-453
Procedure: as §1

DU-4475 = tested on: DU-4475
Procedure: as §1

CAL-148 = tested on: CAL-148
Procedure: as §1

MFM-223 = tested on: MFM-223
Procedure: as §1

CAL-51 = tested on: CAL-51
Procedure: as §1

BT-549 = tested on: BT-549
Procedure: as §1

HDQ-P1 = tested on: HDQ-P1
Procedure: as §1

MDA-MB-231 = tested on: MDA-MB-231
Procedure: as §1

CAL-120 = tested on: CAL-120
Procedure: as §1

HCC1937 = tested on: HCC1937
Procedure: as §1

MDA-MB-468 = tested on: MDA-MB-468
Procedure: as §1

Hs578T = tested on: Hs578T
Procedure: as §1

Row | SMILES | normalised response (HCC1143) | normalised response (MDA-MB-436) | normalised response (HCC1599) | normalised response (CAL-85-1) | normalised response (MCF-10A) | normalised response (BT-474) | normalised response (MDA-MB-453) | normalised response (DU-4475) | normalised response (CAL-148) | normalised response (MFM-223) | normalised response (CAL-51) | normalised response (BT-549) | normalised response (HDQ-P1) | normalised response (MDA-MB-231) | normalised response (CAL-120) | normalised response (HCC1937) | normalised response (MDA-MB-468) | normalised response (Hs578T)
1 | COc1ccc(-c2cc3c(C)nc(N)nc3n([C@H]3CC[C@H](OCCO)CC3)c2=O)cn1 (1 nM) | 111% | 78.6% | 82.5% | 105% | 103% | 91.2% | 98% | 97.1% | 85% | 82% | 110% | 98.8% | 77% | 105% | 95.8% | 91.8% | 55.4% | 94.1%
2 | CCN(CC)CCNC(=O)c1c(C)[nH]c(/C=C2\C(=O)Nc3ccc(F)cc32)c1C [Sunitinib] (0.1 nM) | 116% | 65.4% | 98.9% | 97.5% | 64.2% | 103% | 108% | 99.6% | 94.5% | 98.8% | 105% | 98.3% | 86.5% | 108% | 97.4% | 102% | 61.4% | 91.2%
3 | COc1cc2c(Oc3ccc(NC(=O)C4(C(=O)Nc5ccc(F)cc5)CC4)cc3F)ccnc2cc1OCCCN1CCOCC1 [Foretinib] (0.1 nM) | 111% | 72.6% | 103% | 105% | 104% | 101% | 99.2% | 99.2% | 83.9% | 105% | 98.8% | 96.1% | 104% | 74.6% | 100% | 93% | 107% | 99.2%
4 | CCc1cnn2c(NCc3ccc[n+]([O-])c3)cc(N3CCCC[C@H]3CCO)nc12 [Dinaciclib] (0.1 nM) | 127% | 90% | 113% | 97.3% | 111% | 98.8% | 102% | 109% | 85.3% | 79.9% | 90.8% | 92.6% | 87.9% | 120% | 107% | 115% | 86.5% | 115%
5 | CO[C@H]1C[C@@H]2CC[C@@H](C)[C@@](O)(O2)C(=O)C(=O)N2CCCC[C@H]2C(=O)O[C@H]([C@H](C)C[C@@H]2CC[C@@H](OCCO)[C@H](OC)C2)CC(=O)[C@H](C)/C=C(\C)[C@@H](O)[C@@H](OC)C(=O)[C@H](C)C[C@H](C)/C=C/C=C/C=C/1C [Everolimus] (0.01 nM) | 104% | 90% | 85.7% | 93.7% | 71% | 99.3% | 105% | 95.5% | 98.9% | 100% | 122% | 98.6% | 86.4% | 92.3% | 101% | 76.5% | 92.8% | 77.7%
